Results from publication PMC11220067.
These are yes or no findings as the source states them, for the method shown. Binding seen in cells or lysates may run through a third protein. Some entries that bind do so weakly or less than the wild type.

Chains of the proteins cited; added tags and fusions are not shown.
UniProt P08172: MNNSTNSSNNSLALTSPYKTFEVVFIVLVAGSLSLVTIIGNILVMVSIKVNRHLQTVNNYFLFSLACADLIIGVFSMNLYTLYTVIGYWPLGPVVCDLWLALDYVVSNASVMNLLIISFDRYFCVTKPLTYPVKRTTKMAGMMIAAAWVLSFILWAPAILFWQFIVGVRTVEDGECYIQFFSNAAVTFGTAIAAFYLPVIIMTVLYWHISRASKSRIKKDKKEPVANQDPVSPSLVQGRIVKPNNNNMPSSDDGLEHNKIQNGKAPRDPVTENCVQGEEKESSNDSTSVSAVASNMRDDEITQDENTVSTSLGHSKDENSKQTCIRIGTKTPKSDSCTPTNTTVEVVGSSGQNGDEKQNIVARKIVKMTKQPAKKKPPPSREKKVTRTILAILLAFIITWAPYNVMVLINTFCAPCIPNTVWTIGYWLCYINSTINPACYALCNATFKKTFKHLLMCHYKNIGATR
UniProt P08912: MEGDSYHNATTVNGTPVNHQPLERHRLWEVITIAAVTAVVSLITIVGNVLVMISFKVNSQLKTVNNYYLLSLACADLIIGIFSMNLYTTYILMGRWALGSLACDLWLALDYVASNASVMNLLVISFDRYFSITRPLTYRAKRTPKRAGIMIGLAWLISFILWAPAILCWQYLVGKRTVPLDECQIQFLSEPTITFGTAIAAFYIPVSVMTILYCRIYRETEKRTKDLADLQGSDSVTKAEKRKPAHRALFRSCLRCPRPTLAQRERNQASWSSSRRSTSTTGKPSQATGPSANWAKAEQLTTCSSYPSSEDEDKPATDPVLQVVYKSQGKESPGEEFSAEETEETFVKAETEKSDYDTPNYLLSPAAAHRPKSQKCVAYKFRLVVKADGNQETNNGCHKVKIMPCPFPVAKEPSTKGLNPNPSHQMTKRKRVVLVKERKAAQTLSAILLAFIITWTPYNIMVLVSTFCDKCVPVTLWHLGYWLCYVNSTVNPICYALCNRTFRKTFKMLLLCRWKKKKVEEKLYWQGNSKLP
UniProt P32120: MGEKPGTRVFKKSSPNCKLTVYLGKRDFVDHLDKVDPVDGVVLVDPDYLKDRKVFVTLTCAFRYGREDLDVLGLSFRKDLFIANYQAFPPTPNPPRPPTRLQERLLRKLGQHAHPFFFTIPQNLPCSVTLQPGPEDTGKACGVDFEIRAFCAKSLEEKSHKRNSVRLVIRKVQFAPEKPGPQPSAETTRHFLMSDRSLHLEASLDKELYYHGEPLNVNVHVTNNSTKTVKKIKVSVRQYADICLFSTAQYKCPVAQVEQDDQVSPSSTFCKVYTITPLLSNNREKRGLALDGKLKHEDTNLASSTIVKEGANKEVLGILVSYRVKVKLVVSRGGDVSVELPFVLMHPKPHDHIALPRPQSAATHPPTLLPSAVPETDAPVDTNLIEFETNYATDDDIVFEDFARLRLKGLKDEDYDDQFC

Tests used:
[1] = molecular target: muscarinic M2 acetylcholine receptor-NanoLuciferase (human) (UniProt P08172); assay: FRET or BRET; intermolecular NanoBRET in living cells; GPCR-NLuc as donor, Halo-Tag-β-arrestin2 (Halo-ligand labelled) as acceptor; ΔQ-GRK HEK293 cells co-transfected with empty vector, GRK2 or GRK3 (WT, D110A, R587Q, D110A,R587Q) or their CAAX versions; for M5R also CRISPR/Cas9 HEK293 control cells with endogenous GRKs, with or without bARK-CT (0.5 or 1 µg) or 300 nM FR900359; stimulated with isoproterenol (b2AR) or acetylcholine (M2R, M5R); measuring buffer 140 mM NaCl, 10 mM HEPES, 5.4 mM KCl, 2 mM CaCl2, 1 mM MgCl2, pH 7.3
[2] = molecular target: muscarinic M5 acetylcholine receptor-NanoLuciferase (human) (UniProt P08912); assay: as above

## Halo-Tag-β-arrestin2 (from UniProt P32120 1-420)
[1]
  binding: binds
[2]
  binding: binds
